“And” between values parts separate entries of the source, which are not always exact repeats. Equal values may be shown once. Where a name gives a salt, the structure may show the parent alone. ± gives the standard deviation of the averaged measurements. In all, about 1,800 compounds were measured (“GFP- (p16Ink4a-) cell count relative to negative-control wells”: median about 0.99, lowest 2% from about 0.5 on). This is one part of the list.
test system: mouse p16Ink4a+/- lung fibroblasts (INKBRITE, bleomycin-injured); assay: GFP- (p16Ink4a-) cell count relative to negative-control wells (fold of vehicle); higher = more p16Ink4a- cells surviving; details: 1 µM; 3 days

| SMILES | GFP- |
| --- | --- |
| CC(C)[C@H](N)C(=O)OCCOCn1cnc2c(O)nc(N)nc21 [Valaciclovir] | 1 |
| Cc1c(-c2ccccc2)oc2c(C(=O)OCCN3CCCCC3)cccc2c1=O [Flavoxate] | 1.1 |
| Cn1cc(/C=C/C(=O)c2cccc(F)c2)cc1/C=C/C(=O)NO | 0.865 ± 0.015 |
| CCC[C@@H]1C[C@@H](C(=O)N[C@@H]([C@H]2O[C@H](SC)[C@H](O)[C@@H](O)[C@@H]2O)[C@@H](C)O)N(C)C1 [Lincomycin HCl] | 1.03 |
| Nc1ncn([C@@H]2O[C@H](CO)[C@@H](O)[C@H]2O)c(=O)n1 [5-azacytidine, Azacitidine] | 0.758 ± 0.04 |
| C[C@@]12C[C@@]3(O)O[C@@H](O1)[C@]1(COC(=O)c4ccccc4)[C@H]3C[C@@]12O[C@@H]1O[C@H](CO)[C@@H](O)[C@H](O)[C@H]1O [Paeoniflorin] | 0.962 |
| CC1COC2(CCN(c3nc(=O)c4cc(C(F)(F)F)cc([N+](=O)[O-])c4s3)CC2)O1 (racemic) [BTZ043 Racemate] | 1.26 |
| Cc1c(OCC(F)(F)F)ccnc1C[S@@](=O)c1nc2ccccc2[nH]1 [Dexlansoprazole] | 0.956 |
| N=C(N)N/N=C/c1c(Cl)cccc1Cl [Guanabenz] | 1.08 |
| [O]=[Mg] [Magnesium oxide] | 1.06 |
| CCCCC[C@H](O)/C=C/[C@H]1[C@H](O)CC(=O)[C@@H]1CCCCCCC(=O)O [Alprostadil] | 1.05 |
| CC(C)NCC(O)COc1ccc(COCCOC(C)C)cc1 (centres undefined) [Bisoprolol] | 1.09 |
| O=C(c1ccc(F)cc1)N1CCC[C@H](c2nc(-c3ccc(F)cc3)no2)C1 | 1.2 |
| O=C(O)CCCN1CCC(O[C@@H](c2ccc(Cl)cc2)c2ccccn2)CC1 [Bepotastine Besilate] | 0.878 |
| Cn1cc(-c2ccc3ncc(Cc4ccc5ncccc5c4)n3n2)cn1 | 1.01 |
| Cc1noc(-c2ccc(CSCCC(=O)O)cc2)c1NC(=O)OC(C)c1ccccc1Cl (centres undefined) | 0.83 |
| NC(=O)c1cccc(-c2cc(Nc3ccc(OC(F)(F)F)cc3)ncn2)c1 | 1.21 |
| Nc1nc(N)nc(-c2cc(Cl)ccc2Cl)n1 [Irsogladine Maleate] | 1.15 |
| Cc1cccc(CC(=O)N2CCc3c2ccc(-c2cn(C)c4ncnc(N)c24)c3F)n1 | 0.986 |
| O=C(O)/C=C/c1ccc(Cn2ccnc2)cc1 [Ozagrel HCl] | 1.07 and 0.945 |
| Cc1ccc(NC(=O)c2ccc(CN3CCN(C)CC3)cc2)cc1Nc1nc(-c2cccnc2)cs1 [Masitinib] | 1.09 |

| SMILES | GFP- |
| --- | --- |
| CC1CCN(CC[C@H]2CCCN2S(=O)(=O)c2cccc(O)c2)CC1 | 0.862 |
| O=C(Cc1ccc(-c2ccc(OCCN3CCOCC3)cc2)cn1)NCc1ccccc1 | 0.503 |
| O=S(=O)(O)CCS [Mesna] | 1.1 |
| O=C(O)CCCc1c[nH]c2ccccc12 [3-Indolebutyric Acid] | 0.92 |
| Cc1c(N)nc([C@H](CC(N)=O)NC[C@@H](N)C(N)=O)nc1C(=O)N[C@H](C(=O)N[C@@H](C)[C@H](O)[C@@H](C)C(=O)N[C@@H](C(=O)NCCc1nc(-c2nc(C(=O)NCCC[SH](C)C)cs2)cs1)[C@@H](C)O)C(O[C@H]1O[C@H](CO)[C@H](O)[C@@H](O)[C@H]1O[C@H]1O[C@H](CO)[C@@H](O)[C@H](OC(N)=O)[C@@H]1O)c1c[nH]cn1 (some centres undefined) [Bleomycin] | 0.745 |
| NC(CO)(CO)CO | 0.909 |
| CCC(=O)N1CCN(c2ccc(-n3c(=O)ccc4cnc5ccc(-c6cnc7ccccc7c6)cc5c43)cc2C(F)(F)F)CC1 [Torin 1] | 0.571 |
| Cn1cnc2c1c(=O)[nH]c(=O)n2C [Theobromine] | 1.02 |
| CCN[C@H]1CN(CCCOC)S(=O)(=O)c2sc(S(N)(=O)=O)cc21 [Brinzolamide] | 1.1 |
| CS(=O)(=O)c1ccc([C@@H](O)[C@@H](CO)NC(=O)C(Cl)Cl)cc1 [Thiamphenicol] | 0.952 |
| CN(C)Cc1ccc(S(=O)(=O)n2ccc(/C=C/C(=O)NO)c2)cc1 [Resminostat] | 0.684 ± 0.099 |
| COc1ccc(-c2cc(=O)c3c(OC)c(OC)c(OC)c(OC)c3o2)cc1 [Tangeretin] | 1.09 |
| O[C@@H](COc1cccc2ncccc12)CN1CCN([C@@H]2c3ccccc3[C@@H]3[C@H](c4ccccc42)C3(F)F)CC1 [Zosuquidar 3HCl] | 0.995 |
| Cc1cccc(Nc2nc(-c3ccncc3)cs2)c1 | 0.985 |
| O=C(Nc1ccccc1)Nc1ccc(-c2ccc(C(=O)[C@@H]3CCC[C@H]3C(=O)O)cc2)cc1 | 0.992 |
| Cc1cccc(C)c1NC(=O)C1CCCCN1C (centres undefined) [Mepivacaine] | 0.979 |
| CN(C[C@@H]1COCCO1)S(=O)(=O)Nc1ccc2ccc3ncc(-c4cnn(C)c4)cc3c(=O)c2c1 | 0.813 |
| CCCc1nn(C)c2c(O)nc(-c3cc(S(=O)(=O)N4CCN(C)CC4)ccc3OCC)nc12 [Sildenafil, Sildenafil Citrate] | 0.849 |
| C[C@@H]1COCCN1c1cc(C2(S(C)(=O)=O)CC2)nc(-c2cccc3[nH]ccc23)n1 | 0.691 |
| O=C(O)c1cc(=O)c2ccccc2o1 [Chromocarb] | 0.965 |
| CCN1CCN(C(=O)N[C@@H](C(=O)N[C@@H]2C(=O)N3[C@@H]2SC(C)(C)[C@@H]3C(=O)O)c2ccccc2)C(=O)C1=O [Piperacillin] | 0.951 |

| SMILES | GFP- |
| --- | --- |
| CCn1c(N)c(C(=O)NC)c(=O)c2ccc(C#C[C@@](C)(O)COC)nc21 | 0.996 |
| COc1ccc(NS(=O)(=O)c2sc3ccc(Cl)cc3c2C)cc1N1CCNCC1 | 0.919 |
| C=C1/C(=C/C=C2\CCC[C@]3(C)[C@@H]([C@H](C)/C=C/[C@@H](C)C(C)C)CC[C@@H]23)C[C@@H](O)C[C@@H]1O [Doxercalciferol] | 1.41 |
| C=C(c1ccc(C(=O)O)cc1)c1cc2c(cc1C)C(C)(C)CCC2(C)C [Bexarotene] | 0.992 |
| COc1ccc(COc2ccc(Cc3cnc(N)nc3N)cc2OC)cc1 | 0.987 |
| Cc1ncc([N+](=O)[O-])n1CCO [Metronidazole] | 1.03 |
| COc1cc(C(C)=O)ccc1O [Apocynin] | 1.1 |
| O=C(Oc1ccccc1C(=O)O)c1ccccc1O [Salsalate] | 0.999 |
| CCOC(=O)[C@H](CCc1ccccc1)N[C@@H](C)C(=O)N1CCC[C@H]1C(=O)O [Enalapril] | 1 |
| Cc1ccccc1CN1C2=NCCN2C(=O)C2=C1CCN(Cc1ccccc1)C2 | 1.03 |
| Cc1cc(Nc2nc(N[C@@H](C)c3ccc(F)cc3)c(C#N)cc2F)n[nH]1 | 0.703 ± 0.042 |
| CC(C)[C@H]1C(=O)N[C@@H](CCCN=C(N)N)C(=O)NCC(=O)N[C@@H](CC(=O)O)C(=O)N[C@H](Cc2ccccc2)C(=O)N1C [Cilengitide] | 0.887 |
| Oc1ccc2ccccc2c1SSc1c(O)ccc2ccccc12 | 1.01 |
| Cc1ccc(C(=O)N(CCCN)[C@@H](c2nc3cc(Cl)ccc3c(=O)n2Cc2ccccc2)C(C)C)cc1 [Ispinesib] | 0.733 |
| O=C(O)CCCc1ccccc1 [Gamma-Phenyl-Butyric Acid] | 0.949 ± 0.064 |
| CC1=CC(=O)NS(=O)(=O)O1 [Acesulfame Potassium] | 1.06 |
| O=C(O)c1cc(=O)[nH]c(=O)[nH]1 [Orotic Acid] | 1.09 |
| CCOc1cc(CC(=O)N[C@@H](CC(C)C)c2ccccc2N2CCCCC2)ccc1C(=O)O [Repaglinide] | 1.05 |
| COc1cc(CCC(C)=O)ccc1O [Vanillylacetone] | 0.974 |
| N=C(N)Nc1ccc(C(=O)Oc2ccc3cc(C(=N)N)ccc3c2)cc1 [Nafamostat] | 1.16 |
| CC(C)(C)C#Cc1cc(N(C(=O)[C@H]2CC[C@H](C)CC2)[C@H]2CC[C@@H](O)CC2)c(C(=O)O)s1 [Lomibuvir] | 1.27 |

| SMILES | GFP- |
| --- | --- |
| O=C(O)c1cc2cccc([N+](=O)[O-])c2[nH]1 | 0.924 |
| O=C1O[C@H]([C@@H](O)CO)C(O)C1O (some centres undefined) [Sodium ascorbate] | 0.999 |
| COc1cc2c(Nc3ccc(Br)cc3F)ncnc2cc1OCC1CCN(C)CC1 [Vandetanib] | 0.797 |
| COc1cc2nc(N3CCCN(C)CC3)nc(NC3CCN(Cc4ccccc4)CC3)c2cc1OC | 0.882 ± 0.057 |
| OC[C@H]1O[C@@H](Oc2ccc(O)cc2)[C@H](O)[C@@H](O)[C@@H]1O [Arbutin] | 1.03 |
| CN(C)CCc1c[nH]c2ccc(Cn3cncn3)cc12 [Rizatriptan] | 0.924 |
| Cc1ccc(S(=O)(=O)NC(=O)NN2CC3CCCC3C2)cc1 (centres undefined) [Gliclazide] | 1.29 |
| COc1ccc(NS(=O)(=O)c2ccc(N)cc2)nn1 [Sulfamethoxypyridazine] | 0.935 |
| Clc1ccc2nsnc2c1NC1=NCCN1 [Tizanidine] | 1.12 |
| CC1=C(C(=O)Nc2cc3c[nH]nc3cc2F)C(c2ccc(C(F)(F)F)cc2)CC(=O)N1 (centres undefined) | 1.23 |
| CN(C)CCOC(C)(c1ccccc1)c1ccccn1 (centres undefined) [Doxylamine] | 1.17 |
| CC(=O)Nc1ccc(C(=O)Nc2ccccc2N)cc1 [Tacedinaline] | 0.749 ± 0.061 |
| CN(C)CCCOc1nn(Cc2ccccc2)c2ccccc12 [Benzydamine] | 0.535 |
| CC(=O)Nc1ncc([N+](=O)[O-])s1 [Nithiamide] | 1.03 |
| CNCC[C@@H](Oc1ccccc1C)c1ccccc1 [Atomoxetine] | 1.04 |
| CCC(=O)NCC[C@@H]1CCc2ccc3c(c21)CCO3 [Ramelteon] | 0.863 |
| CC(C)n1nc(-c2cc3cc(O)ccc3[nH]2)c2c(N)ncnc21 | 0.613 |
| CCc1oc2ccccc2c1C(=O)c1cc(Br)c(O)c(Br)c1 [Benzbromarone] | 0.921 |
| Cc1nc2n(c(=O)c1CCN1CCC(c3noc4cc(F)ccc34)CC1)CCCC2 [Risperidone] | 0.982 |
| Clc1cccc(Cl)c1NC1=NCCN1 [Clonidine] | 0.819 |
| CN1[C@@H]2CC[C@H]1C[C@@H](OC(=O)C(O)c1ccccc1)C2 (some centres undefined) [Homatropine Bromide] | 1.14 |

In the list so far, these have a CF3 group.

| SMILES | GFP- |
| --- | --- |
| CC1COC2(CCN(c3nc(=O)c4cc(C(F)(F)F)cc([N+](=O)[O-])c4s3)CC2)O1 (racemic) [BTZ043 Racemate] | 1.26 |
| Cc1c(OCC(F)(F)F)ccnc1C[S@@](=O)c1nc2ccccc2[nH]1 [Dexlansoprazole] | 0.956 |
| NC(=O)c1cccc(-c2cc(Nc3ccc(OC(F)(F)F)cc3)ncn2)c1 | 1.21 |
| CCC(=O)N1CCN(c2ccc(-n3c(=O)ccc4cnc5ccc(-c6cnc7ccccc7c6)cc5c43)cc2C(F)(F)F)CC1 [Torin 1] | 0.571 |
| CC1=C(C(=O)Nc2cc3c[nH]nc3cc2F)C(c2ccc(C(F)(F)F)cc2)CC(=O)N1 (centres undefined) | 1.23 |

Reference: the supplement of paper PMC11060735
